## Primary screen of a compound library

Amino acid sequences for entries named in this document (tags omitted).
UniProt P9WPC5, whole entry: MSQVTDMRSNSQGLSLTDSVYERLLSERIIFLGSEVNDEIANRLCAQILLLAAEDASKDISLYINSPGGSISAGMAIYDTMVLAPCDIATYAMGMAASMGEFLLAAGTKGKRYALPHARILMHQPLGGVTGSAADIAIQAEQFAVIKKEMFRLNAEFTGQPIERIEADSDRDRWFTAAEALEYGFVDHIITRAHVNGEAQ
UniProt P9WPC3, whole entry partner: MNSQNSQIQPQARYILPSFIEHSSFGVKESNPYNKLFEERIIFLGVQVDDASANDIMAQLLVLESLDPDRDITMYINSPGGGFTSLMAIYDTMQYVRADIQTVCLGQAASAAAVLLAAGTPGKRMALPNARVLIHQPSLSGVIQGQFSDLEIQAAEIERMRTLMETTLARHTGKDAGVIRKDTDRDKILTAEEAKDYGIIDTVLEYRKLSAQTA
UniProt I6X8D2, whole entry: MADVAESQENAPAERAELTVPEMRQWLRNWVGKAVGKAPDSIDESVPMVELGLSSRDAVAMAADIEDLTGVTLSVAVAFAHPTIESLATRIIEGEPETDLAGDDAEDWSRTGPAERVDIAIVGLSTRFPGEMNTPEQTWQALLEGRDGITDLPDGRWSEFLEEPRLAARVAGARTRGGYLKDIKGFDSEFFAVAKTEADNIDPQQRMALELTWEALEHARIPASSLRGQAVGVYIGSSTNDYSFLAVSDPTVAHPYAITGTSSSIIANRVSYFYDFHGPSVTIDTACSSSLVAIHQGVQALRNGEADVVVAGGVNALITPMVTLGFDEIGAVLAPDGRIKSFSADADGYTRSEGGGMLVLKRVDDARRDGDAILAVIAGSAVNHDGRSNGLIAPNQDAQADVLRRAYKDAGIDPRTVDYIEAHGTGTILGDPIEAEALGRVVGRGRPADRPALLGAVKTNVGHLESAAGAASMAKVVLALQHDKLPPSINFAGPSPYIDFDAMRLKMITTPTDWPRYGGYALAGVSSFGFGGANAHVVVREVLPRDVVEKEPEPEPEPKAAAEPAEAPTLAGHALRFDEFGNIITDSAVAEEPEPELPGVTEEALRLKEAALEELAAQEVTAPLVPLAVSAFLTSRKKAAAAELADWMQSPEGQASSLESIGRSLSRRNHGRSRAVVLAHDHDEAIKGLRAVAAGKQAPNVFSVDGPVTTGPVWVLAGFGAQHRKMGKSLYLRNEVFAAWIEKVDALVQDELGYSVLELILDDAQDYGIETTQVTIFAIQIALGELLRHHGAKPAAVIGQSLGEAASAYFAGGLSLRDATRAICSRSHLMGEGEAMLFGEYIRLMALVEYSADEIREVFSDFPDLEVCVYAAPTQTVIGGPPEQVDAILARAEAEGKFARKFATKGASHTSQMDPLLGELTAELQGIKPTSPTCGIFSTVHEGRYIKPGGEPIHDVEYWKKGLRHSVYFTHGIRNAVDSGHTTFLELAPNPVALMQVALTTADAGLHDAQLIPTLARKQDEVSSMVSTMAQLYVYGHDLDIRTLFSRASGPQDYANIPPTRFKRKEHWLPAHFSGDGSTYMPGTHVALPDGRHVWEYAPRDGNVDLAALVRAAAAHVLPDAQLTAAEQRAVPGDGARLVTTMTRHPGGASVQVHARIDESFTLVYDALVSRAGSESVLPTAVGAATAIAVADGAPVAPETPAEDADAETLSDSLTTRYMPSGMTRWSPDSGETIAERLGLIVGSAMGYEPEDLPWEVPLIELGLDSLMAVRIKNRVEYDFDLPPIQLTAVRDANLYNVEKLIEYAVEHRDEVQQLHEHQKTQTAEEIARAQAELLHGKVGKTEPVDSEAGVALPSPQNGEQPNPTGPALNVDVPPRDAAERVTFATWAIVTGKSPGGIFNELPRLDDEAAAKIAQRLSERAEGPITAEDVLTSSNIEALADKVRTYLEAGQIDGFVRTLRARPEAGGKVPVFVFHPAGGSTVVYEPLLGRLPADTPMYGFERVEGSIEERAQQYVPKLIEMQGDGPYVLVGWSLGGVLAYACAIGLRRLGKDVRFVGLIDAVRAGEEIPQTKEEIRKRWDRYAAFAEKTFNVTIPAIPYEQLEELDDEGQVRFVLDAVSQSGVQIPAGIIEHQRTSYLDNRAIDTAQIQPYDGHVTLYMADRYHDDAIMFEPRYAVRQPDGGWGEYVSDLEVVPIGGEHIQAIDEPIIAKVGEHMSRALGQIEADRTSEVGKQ

Measurements from “University of Dundee, Small-Polar-MMV Screening Library” (2021), ChEMBL document CHEMBL3988442.

ClpP1P2: 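Protease assay of ClpP1P2, read by the AMC dye that it sets free. Target: ClpP1P2, Mycobacterium tuberculosis (UniProt P9WPC5 and UniProt P9WPC3). Compounds at 50 µM. Direction is inferred from only a few compounds that gave an IC50; most scored high, so higher reads as stronger inhibition. Most other retested compounds had strongly negative values. Size under these conditions: about 69,000 compounds, about 10 of them at 50% or above in at least one test.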
Pks13 thioesterase: 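Polyketide synthase Pks13, Mycobacterium tuberculosis (UniProt I6X8D2). Enzyme assay of the thioesterase domain of polyketide synthase 13; the read-out is not stated. Compounds at 30 µM. Higher reads as stronger inhibition (inferred from which compounds were picked for retests). Of about 67,000 compounds tested this way, about 300 (0.46%) reached 50% or more in at least one test.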

The filed quantity is “Percent Effect” (%). The controls that fix the scale are not given in the record; negative values are as filed. The compounds are a random part of those screened. A dash means the value is not listed here; it may have been measured.

Compound	ClpP1P2	Pks13 thioesterase
CC(C)(C)CN(CCC#N)Cn1cc(Cl)cn1	-8.85%	-14.92%
CCOc1ccc(N2CCCN=C2NC(=O)c2cccc(C)c2)cc1	9.496%	-18.17%
CCc1nc(CN2CCCN(c3ncnc4ccccc34)CC2)no1	11.6%	-
CC(O)CN1CCN(C(=O)CN(C)c2ccc(C#N)cn2)CC1 (stereo unspecified)	-5.333%	-19.03%
CN(C)CCOCc1nnc2n1CCN(c1cnccn1)CC2	6.757%	-9.706%
COc1ccc(-c2nc3c([nH]2)CCCNC3=O)cc1OC	-4.782%	-6.487%
CCN(C)S(=O)(=O)N(Cc1cscn1)c1ccccc1	-4.259%	-20.5%
O=C(O)c1ccc(C2CCCN(C(=O)c3ccc[nH]3)C2)cc1 (stereo unspecified)	-7.917%	3.883%
COCCn1cc(NC(=O)NCC2CCN(c3ccccc3)C2)cn1 (stereo unspecified)	5.075%	-18.92%
O=C1NCCCC1NC(=O)C1(c2cccc(Cl)c2)CCC1 (stereo unspecified)	-26.04%	1.747%
Cc1ccc(CN2CCOC3(COCCN(CCN(C)C)C3)C2)o1 (stereo unspecified)	2.679%	-34.66%
CC[C@@H]1C[C@H](C(F)(F)F)n2nc(C3CCN(S(=O)(=O)CC)CC3)cc2N1	-0.0792%	-31.42%
Cc1noc(C)c1CN(C)CC1CCCN1c1cccnn1 (stereo unspecified)	18.77%	-15.74%
CCOc1ccc(CN2CCC(c3[nH]ncc3C)C2)cc1CO (stereo unspecified)	-8.355%	-1.041%
O=C1OCCN1CCc1nc(-c2cc3c4c(c2)CC(=O)N4CCC3)cs1	14.7%	-3.255%
Cn1cc(CN2C[C@@H]3COC[C@]3(CNC(=O)c3ccco3)C2)cn1	-4.536%	-6.257%
CC(C)(CNC(=O)CSc1nnnn1C1CC1)c1ccccc1F	6.935%	-
CN1CCN(CCO)C(=O)C12CCN(c1nccs1)CC2	6.95%	-32.86%
COc1cc(C)nc(N2CCN(C(=O)c3cc(Cl)c[nH]3)CC2)n1	-12.43%	-11.26%
Cc1nn(C(C)C)cc1S(=O)(=O)N(C)Cc1nonc1C	0.1991%	12.41%
COC(=O)CCC(=O)N1CCc2nc(C(=O)N3CCOCC3)sc2CC1	-3.4%	-0.1659%
NC(=O)C1CCN(Cc2csc(-c3ncccn3)n2)CC1	-24.77%	-35.87%
CC(C)c1noc(CCCC(=O)NCCOc2ccccc2)n1	-0.4118%	-30.43%
COc1ccccc1[C@@H]1CN(Cc2ccncc2)C[C@H]1C(=O)O	10.24%	-5.914%
CCC(CC)C(=O)N1CCC(c2nn(CCN)c3nccnc23)C1 (stereo unspecified)	-8.475%	-0.2114%
O=S(=O)(C1CC1)N1CCc2ncnc(-c3ccc(F)cc3)c2CC1	8.186%	-6.591%
CN(C)c1ccc(C(=O)N2CCN(CC(O)C(C)(C)C)CC2)nn1 (stereo unspecified)	-17.5%	-4.264%
CCOCCn1nc(C)cc1C(=O)N1CCOCC(CO)C1 (stereo unspecified)	-9.082%	-15.25%
Cc1c(C(=O)N2CCCC2c2cnn(C)c2)cnn1-c1ccccc1 (stereo unspecified)	7.128%	4.69%
Cc1c(C(=O)NCC2CCS(=O)(=O)C2)cnn1-c1ccccc1 (stereo unspecified)	-22.95%	-20.71%
N#Cc1ccc(S(=O)(=O)NCCn2ccnc2)cc1Cl	6.297%	-
Cc1cc(C)n(-c2ccc(CNCc3ccc(OC(C)C)cc3)cn2)n1	14.84%	-13.05%
NC(=O)COc1cccc(CN2CCCC2c2ccc[nH]2)c1 (stereo unspecified)	-12.26%	-6.915%
O=C(Cn1ccc2ccccc21)Nc1cc(N2CCOCC2)ncn1	0.7345%	2.178%
CCCc1cc(C(=O)NC(C)c2ccccc2)n(C)n1 (stereo unspecified)	5.501%	-1.081%
Cc1ccc2c(c1)CCC2NCc1c(C)nn(CCO)c1C (stereo unspecified)	-3.093%	-11.77%
Cc1cnc(CNc2ncc(C)c(-c3cnn(C)c3)n2)cn1	-5.909%	-3.99%
Cc1ncsc1CN1CC[C@H](O)[C@@H](n2cnc3c(N)ncnc32)CC1	-6.362%	-9.84%
Cc1ccc(C(=O)N2CCN(Cc3ccsc3)CC2)n1C	-4.216%	-11.66%
CCOc1cccc2c1OCC(C(=O)NS(=O)(=O)c1ccc(C)s1)=C2	11.88%	4.868%
CCOC1COC2(CCN(C(=O)c3cccc(C)n3)CC2)C1 (stereo unspecified)	0.6524%	2.674%
CN(CC1CC1)c1ccc2ccc(C(=O)NCCN3CCOCC3)cn12	0.8405%	4.084%
CC(C)c1nc(CN2CCCC2c2cnn(C)c2)cs1 (stereo unspecified)	-17.97%	-1.695%
CCOc1cc(CN(C)Cc2ccccc2)ccc1OC(F)F	-10.91%	6.5%
Cc1noc(C)c1-c1cccc(CC2CCN(C(=O)CCC(=O)O)C2)n1 (stereo unspecified)	1.58%	-27.49%
Fc1ccc(-c2nnc(CN3CCCC3Cn3cccn3)o2)cc1 (stereo unspecified)	2.635%	18.44%
Cc1noc(C)c1C(=O)NCC1CCCCN1Cc1ccccc1 (stereo unspecified)	9.155%	-28.13%
CC(C)c1cc(=O)[nH]c(-c2ccccc2CN2CCCC2C)n1 (stereo unspecified)	12.43%	-15.2%
CC(C)(O)CNC(=O)NCc1nccn1CCc1ccccc1	-11.61%	-14.48%
Cc1ncc(CN2CCC(N(C)Cc3noc(C4CC4)n3)C2)s1 (stereo unspecified)	-10.27%	-33.79%
O=c1[nH]nc(CCCN2CCOCC2)n1-c1ccc(F)cc1F	-11.68%	-48.05%
CCCc1cc(NCCn2cccn2)n2nccc2n1	-3.228%	-7.175%
CCN(Cc1csc(C)n1)c1cccc(CO)c1	-2.661%	-15.26%
Cc1cc(F)c2c(c1)CCCN2S(=O)(=O)c1ncn(C)c1Cl	13.03%	-29.52%
O=C(NC1CC1)C1CCCN(c2cccc(C(F)(F)F)n2)C1 (stereo unspecified)	-7.548%	-15.97%
CCCS(=O)(=O)NCc1cccnc1OCc1ccccc1	-0.5829%	-3.421%
Cc1cc(C)c(CNC(=O)NCCC2CCCO2)c(=O)[nH]1 (stereo unspecified)	-17.74%	-9.77%

The last 6 entries again:

- CCCc1cc(NCCn2cccn2)n2nccc2n1 | ClpP1P2: -3.228%; Pks13 thioesterase: -7.175%
- CCN(Cc1csc(C)n1)c1cccc(CO)c1 | ClpP1P2: -2.661%; Pks13 thioesterase: -15.26%
- Cc1cc(F)c2c(c1)CCCN2S(=O)(=O)c1ncn(C)c1Cl | ClpP1P2: 13.03%; Pks13 thioesterase: -29.52%
- O=C(NC1CC1)C1CCCN(c2cccc(C(F)(F)F)n2)C1 (stereo unspecified) | ClpP1P2: -7.548%; Pks13 thioesterase: -15.97%
- CCCS(=O)(=O)NCc1cccnc1OCc1ccccc1 | ClpP1P2: -0.5829%; Pks13 thioesterase: -3.421%
- Cc1cc(C)c(CNC(=O)NCCC2CCCO2)c(=O)[nH]1 (stereo unspecified) | ClpP1P2: -17.74%; Pks13 thioesterase: -9.77%